Library screen at single concentrations

Source: ChEMBL document CHEMBL3988442, “University of Dundee, Small-Polar-MMV Screening Library” (2021).

The filed quantity is “Percent Effect” (%). The record does not define 0% and 100%; most values in the screen are far below 50% and negative numbers occur (in some assays of this library far below -100). Compounds were drawn at random from those tested, without regard to their results. Two or more numbers in one place are separate tests of the same structure; such repeats can differ widely.

Mtb cholesterol medium: 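Whole-cell growth test on Mycobacterium tuberculosis, read after 4 days in a medium based on cholesterol and the lipid DPPC; the read-out is not stated. Tested at 50 µM. Direction is inferred from retests: higher values go with more growth inhibition. About 69,000 compounds were tested under these conditions; 0.54% (about 370) showed 50% or more at least once.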
Mtb glucose medium: 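Growth of Mycobacterium tuberculosis over 3 days (7H9 medium with glucose and tyloxapol); the read-out is not stated. Tested at 50 µM. The record gives no direction; compounds that gave an IC50 in retests scored well above the rest, so higher reads as more growth inhibition. About 69,000 compounds were tested under these conditions; 1.1% (about 760) showed 50% or more at least once.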

CC1COCCN1C(=O)Cc1cc(Cl)c2c(c1)OCCO2 (stereo not given) gave Mtb cholesterol medium: 11.91%; Mtb glucose medium: 10.11%. CCCc1nnc(N2CCC(N3CCCC(O)C3)CC2)o1 (stereo not given) gave Mtb cholesterol medium: -18.34%; Mtb glucose medium: -45.25% and -4.932%. With COCC(C)N(Cc1ccccc1OC)C(=O)c1cc(C)[nH]c(=O)c1 (stereo not given) the screen gave Mtb cholesterol medium: -12.77%; Mtb glucose medium: -15.32%. Result for COc1ccc2c(c1)C(=O)NC1(CC2)CCN(Cc2ccccn2)C1 (stereo not given) was Mtb cholesterol medium: 7.503% and 13.36%; Mtb glucose medium: -30.97%. For O=C(O)C(F)(F)F.O=C(O)C(F)(F)F.[H][C@@]12CN(Cc3nccs3)CCC[C@]1(C(=O)OCC)CN(CCOC)C2 the result was Mtb cholesterol medium: 5.746% and -18.39%; Mtb glucose medium: -11.45% and -32.8%. Cn1ccnc1CN1C[C@@H](F)[C@@H](OCc2nc3cnccc3[nH]2)C1 gave Mtb cholesterol medium: -19.42%; Mtb glucose medium: -2.41% and -4.398%.

Result for O=C(NCCN1CCCC1)c1ccc2c(-c3nccs3)noc2c1 was Mtb cholesterol medium: 0.3429%; Mtb glucose medium: 7.245% and 13.2%. With COc1ccccc1CNC(=O)c1[nH]ncc1Cl the screen gave Mtb cholesterol medium: -3.914%; Mtb glucose medium: -19.11%. With CC(C)c1nn(C)c(N(C)C)c1CNCc1cccnc1N(C)C the screen gave Mtb cholesterol medium: 11.65%; Mtb glucose medium: 9.725%. CC(C)N[C@@H]1CO[C@H](CNC(=O)c2cccs2)[C@H]1O gave Mtb cholesterol medium: -3.92%; Mtb glucose medium: -1.376% and -27.04%. Result for CC(C)OCCCNC(=O)NC(C)c1ccc(-n2cncn2)cc1 (stereo not given) was Mtb cholesterol medium: -3.487%; Mtb glucose medium: -11.34%. For CCC(C)(NCC(N)=O)c1nccs1 (stereo not given) the result was Mtb cholesterol medium: 22.1% and 4.475%; Mtb glucose medium: 25.27%.

With O=C1Nc2ccccc2CN(CC2CCCC2)C12CCNC2 (stereo not given) the screen gave Mtb cholesterol medium: 57.76%; Mtb glucose medium: 70.11%. For C=C(C)CNC(=O)C1CCC(=O)N(C2CCCC2)C1 (stereo not given) the result was Mtb cholesterol medium: 8.107%; Mtb glucose medium: 13.21%. O=C(CCc1cccs1)N1CCc2[nH]nc(COc3ccccc3)c2C1 gave Mtb cholesterol medium: -14.97%; Mtb glucose medium: 1.241%. With COCCCNC(=O)C(C)n1cc(Br)cn1 (stereo not given) the screen gave Mtb cholesterol medium: -28.17%; Mtb glucose medium: -15.67%. Cc1nnc(NC(=O)c2cc(S(=O)(=O)N3CCSCC3)c[nH]2)s1 gave Mtb cholesterol medium: 1.964% and -8.577%; Mtb glucose medium: 21%. With CCC(C)(CC(=O)OC)NC(=O)c1ccc(C(C)=O)cc1 (stereo not given) the screen gave Mtb cholesterol medium: -16.16%; Mtb glucose medium: 1.664% and -29.52%.

With Cl.Cl.O=C(NCc1cncc2c1CCN(CC1CCOC1)C2)c1ccno1 (stereo not given) the screen gave Mtb cholesterol medium: -19.04%; Mtb glucose medium: 4.239% and -4.956%. Result for Cc1nc(C)n(CC2CCCN2c2ncnc3sc(C)c(C)c23)n1 (stereo not given) was Mtb cholesterol medium: -14.98%; Mtb glucose medium: -20.99%. COc1ccc(/C=C/CN2CCN(c3ncccc3C(N)=O)CC2)cc1 gave Mtb cholesterol medium: -19.73%; Mtb glucose medium: -21.58% and -1.648%. With O=C(O)C(F)(F)F.[H][C@]12CN(Cc3cccc(F)c3)C(=O)[C@@]1([H])CN(C1CCOCC1)C2 the screen gave Mtb cholesterol medium: -16.29% and -6.365%; Mtb glucose medium: -32.95% and -3.173%. With CCc1nnc2n1CCN(C(C(N)=O)c1ccc(F)cc1)C2 (stereo not given) the screen gave Mtb cholesterol medium: -4.874%; Mtb glucose medium: -12.52% and -7.535%. Result for CCN1CCC(NC(=O)Cn2cc(C)c3ccccc32)CC1 was Mtb cholesterol medium: -38.52%; Mtb glucose medium: -49.77%.

Result for c1ccc2c(Cc3nnc([C@H]4CCN(C5CCCCC5)C4)o3)c[nH]c2c1 was Mtb cholesterol medium: -14.78%; Mtb glucose medium: 11.04% and -2.477%. Result for COCCN(C)C(=O)c1nc2c(s1)CCCN2C(=O)C1CC1 was Mtb cholesterol medium: 2.211%; Mtb glucose medium: 3.959% and 35.24%. Result for CN(C)CCCN(CCC#N)C(=O)Nc1ccc2[nH]ccc2c1 was Mtb cholesterol medium: 2.451%; Mtb glucose medium: 15.67%. Cc1nc(N2CCOCC2)nc2c1CCN(C(=O)N1CCCC1)CC2 gave Mtb cholesterol medium: -6.872% and -5.673%; Mtb glucose medium: -13.02%. CC(C)n1c(=O)nc2n1C(=O)N(c1ccc(Cl)cc1)C2 read Mtb cholesterol medium: 22.4%; Mtb glucose medium: -13.12%. Result for CNCc1cn(CC2CCN(Cc3cccs3)CC2)nn1 was Mtb cholesterol medium: -34.48%; Mtb glucose medium: -10.73% and -41.45%.

CCOc1cccnc1C(=O)N1CCCN(c2nc(C)cs2)CC1 gave Mtb cholesterol medium: -5.38%; Mtb glucose medium: 10.76% and 8.224%. For N#Cc1ccc(CNc2cnn(CCN3CCOCC3)c2)cc1 the result was Mtb cholesterol medium: 5.094%; Mtb glucose medium: -14%. COc1ccc(C2CCN(C(=O)c3ncccc3OC(C)C)C2)cc1 (stereo not given) read Mtb cholesterol medium: -29.14%; Mtb glucose medium: -21.63%. Result for CCOc1ccc(Cl)cc1C1CCCCN1.Cl (stereo not given) was Mtb cholesterol medium: 8.563%; Mtb glucose medium: 11.47%. With CN1CCN(c2cc(CCNC(=O)C3CCC3)nc(C3CC3)n2)CC1 the screen gave Mtb cholesterol medium: -27.44%; Mtb glucose medium: 3.316%. CCOC(=O)[C@H]1[C@@H](O)C(=O)N(C)C12CCN(C(=O)CC(C)(C)C)CC2 gave Mtb cholesterol medium: 1.549%; Mtb glucose medium: -24.56%.

O=C(NCCS(=O)(=O)N1CCc2ccccc21)c1c(O)cc(F)cc1F read Mtb cholesterol medium: 9.255%; Mtb glucose medium: 12.57%. For O=C(O)C(F)(F)F.O=C(c1cnoc1)N1CCC[C@]2(C[C@@H](OCc3ccccn3)CO2)C1 the result was Mtb cholesterol medium: 5.554%; Mtb glucose medium: 12.35%. For Cc1cncc(C(=O)N2Cc3ccccc3C3(CCN(C)CC3)C2)c1 the result was Mtb cholesterol medium: -9.756%; Mtb glucose medium: -26.86%. For CC(C)(NS(C)(=O)=O)C(=O)NCc1cccc(Br)c1 the result was Mtb cholesterol medium: 17.12%; Mtb glucose medium: 3.844% and 30.64%.

For reference, 5 entries once more:

structure	Mtb cholesterol medium	Mtb glucose medium
CCOc1cccnc1C(=O)N1CCCN(c2nc(C)cs2)CC1	-5.38%	10.76% and 8.224%
C=C(C)CNC(=O)C1CCC(=O)N(C2CCCC2)C1 (stereo not given)	8.107%	13.21%
CC(C)(NS(C)(=O)=O)C(=O)NCc1cccc(Br)c1	17.12%	3.844% and 30.64%
O=C(NCCN1CCCC1)c1ccc2c(-c3nccs3)noc2c1	0.3429%	7.245% and 13.2%
CCC(C)(CC(=O)OC)NC(=O)c1ccc(C(C)=O)cc1 (stereo not given)	-16.16%	1.664% and -29.52%